{"source": "patent US20040191241A1", "about": "“Antigen with haptenic mannitol epitopes and a method of preparing antibodies specific to D-mannitol” (COUNCIL OF SCIENTIFIC AND INDUSTRIAL RESEARCH, priority 2003, published 2004)", "tested_on": "hapten affinity-purified D-mannitol-specific antibody", "assay": "ELISA inhibition: specificity and cross-reactivity of the hapten affinity-purified antibody, D-mannitol-KLH coated wells", "assay_type": "binding, rabbit", "conditions": "(IC50 for D-mannitol ÷ IC50 for test compound) × 100", "experimental": "FIG. 5 depicts specificity of the purified D-mannitol-specific antibody determined by ELISA inhibition. D-Mannitol-KLH conjugate (10 ng/well) was used for coating. The purified antibody (at 1:100 dilution) was preincubated with various inhibitors at different concentrations at 37° C. for 1 h before adding to the coated wells.\nFIG. 6 depicts stereo specificity of the purified D-mannitol-specific antibody determined by ELISA inhibition. As L-mannitol is not available commercially, L-mannitol-BSA conjugate (prepared using L-mannose) was used as inhibitor and the inhibition was compared with that of D-mannitol-BSA conjugate.\nTo check for the formation of hapten-specific antibodies the antiserum was analyzed by non-competitive ELISA using the coated antigen format. The titer of the antiserum was determined by measuring the binding of serial dilutions of antiserum to coated mannitol-KLH conjugate. […] The reaction was stopped by adding 3 M NaOH (40 μL/well) and the absorbance at 405 nm was read in an ELISA reader.\nThe hapten affinity-purified D-mannitol-specific antibody was used for ELISA experiments to obtain the binding curves using D-mannitol-KLH conjugate for coating, and to study the specificity and cross-reactivity by ELISA inhibition experiments. […] Percent cross-reactivity for various inhibitors was calculated using the formula: […]", "note": "Some results were stated once for a whole list of compounds, not compound by compound."}
{"molecule": "O=C[C@@H](O)[C@@H](O)[C@H](O)[C@H](O)CO", "note": "[D-Mannose]", "values": [{"measurement": "Percent cross-reactivity", "setting": "listed as D-mannose", "result": "less than 5%"}]}
{"molecule": "OCC(O)C(O)CO", "note": "(stereo not drawn) [meso-Erythritol]", "values": [{"measurement": "Percent cross-reactivity", "setting": "listed as meso-erythritol", "result": "less than 5%"}]}
